{"source": "PubChem BioAssay AID1224827 | NIAID, 2016", "screen": "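Retest primary hits on a TNF reporter with six siRNAs per gene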 (follow-up of hits)", "cell system": "RAW264.7 G9 mouse macrophage reporter clone", "reagents": "single siRNA against mouse genes, 100 nM siRNA", "duration": "siRNA for 2 days, then LPS about 16 h", "treatment": "bacterial lipopolysaccharide (LPS), 10 ng/ml, cells fixed after overnight (about 16 h) stimulation", "measurement": "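TNF promoter reporter red fluorescence in nuclei, background subtracted, normalised per plate and to non-targeting control siRNA, as z-scores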", "scale": "TNF reporter z-score, mean: higher = stronger Tnf promoter reporter signal; gene median z, three same-vendor siRNAs: higher = stronger Tnf reporter signal for the gene", "call rule": "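An siRNA is called active when its mean z-score over replicates is at least +2 or at most -2; control wells get no call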", "note": "The deposit covers about 3,800 reagents; shown is a random part of them. About 2,200 of all reagents (57%) count as active. 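Active means a strong reporter change in either direction; calls are per siRNA, not per gene; qiagen siRNAs gave weaker effects.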 A number with no mark means an inactive call. The numbers tell different reagents against one gene apart. Further read-outs or replicates are left out here."}
The opening 2 entries as a preview:
{"gene":"Kcnj1","siRNA no.":1,"TNF reporter z-score, mean":-1.36,"gene median z, three same-vendor siRNAs":-3.3}
{"gene":"Kcnj1","siRNA no.":2,"TNF reporter z-score, mean":"-3.3 (active)","gene median z, three same-vendor siRNAs":-3.3}

The list itself, repeating the preview:
{"gene":"Kcnj1","siRNA no.":1,"TNF reporter z-score, mean":-1.36,"gene median z, three same-vendor siRNAs":-3.3}
{"gene":"Kcnj1","siRNA no.":2,"TNF reporter z-score, mean":"-3.3 (active)","gene median z, three same-vendor siRNAs":-3.3}
{"gene":"Kcnj1","siRNA no.":3,"TNF reporter z-score, mean":"-4.41 (active)","gene median z, three same-vendor siRNAs":-3.3}
{"gene":"Cebpd","siRNA no.":1,"TNF reporter z-score, mean":"-2.93 (active)","gene median z, three same-vendor siRNAs":-3.21}
{"gene":"Cebpd","siRNA no.":2,"TNF reporter z-score, mean":"-3.1 (active)","gene median z, three same-vendor siRNAs":-3.21}
{"gene":"Cebpd","siRNA no.":3,"TNF reporter z-score, mean":"-3.52 (active)","gene median z, three same-vendor siRNAs":-3.21}
{"gene":"Cebpd","siRNA no.":4,"TNF reporter z-score, mean":"2.53 (active)","gene median z, three same-vendor siRNAs":0.192}
{"gene":"Cebpd","siRNA no.":5,"TNF reporter z-score, mean":1.44,"gene median z, three same-vendor siRNAs":0.192}
{"gene":"Cebpd","siRNA no.":6,"TNF reporter z-score, mean":-0.789,"gene median z, three same-vendor siRNAs":0.192}
{"gene":"Serpinb6c","siRNA no.":1,"TNF reporter z-score, mean":0.67,"gene median z, three same-vendor siRNAs":-1.37}
{"gene":"Serpinb6c","siRNA no.":2,"TNF reporter z-score, mean":-1.37,"gene median z, three same-vendor siRNAs":-1.37}
{"gene":"Serpinb6c","siRNA no.":3,"TNF reporter z-score, mean":"-5.73 (active)","gene median z, three same-vendor siRNAs":-1.37}
{"gene":"Serpinb6c","siRNA no.":4,"TNF reporter z-score, mean":"2.07 (active)","gene median z, three same-vendor siRNAs":0.248}
{"gene":"Serpinb6c","siRNA no.":5,"TNF reporter z-score, mean":0.893,"gene median z, three same-vendor siRNAs":0.248}
{"gene":"Serpinb6c","siRNA no.":6,"TNF reporter z-score, mean":"-3.68 (active)","gene median z, three same-vendor siRNAs":0.248}
